# Some of the results follow.
# B1: HA-00510 (Pseudomonas aeruginosa), Q02V39_PSEAB (protein)
# chain: GVPIVNIATPNGAGLSNNHFRDYNVGANGLILNNATGKTQGTQLGGIILGNPNLKGQAAQVILNQVTGGNRSTLAGYTEVAGQSARVIVANPHGITCQGCGFINTPRATLTTGKPIMDGQRLERFQVDGGDIVVEGAELNVGNLEQFDLITRSAKLNAKLYAKNLNIVTGRNDVQADSLQATPRAADGSEKPQLAIDSSALGGMYAGAIRLVGTEQGVGVKLAGDMAASGGDIRIDASGKLSLAQASSQGDLKIAAQAVELNGKTYAGGSAEIRSAEELVNRQS
# Key:
# Experiment in all cases: glycan array binding signal (z-score within array); higher = stronger binding
# Conditions in all cases: glycan notation: IUPAC condensed, linker removed
# [1] = target: GlcNAc(b1-4)GlcNAc(b1-4)GlcNAc(b1-4)GlcNAc(b1-4)GlcNAc
# Method in brief: (§1)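 Glycan array binding is given as a within-array Z-score, which can be read as non-binding when negative. The arrays, 3228 of them, came from the Consortium for Functional Glycomics database and were retained only where the protein sequence was available. Z-scores were averaged across arrays of the same protein sequence at different concentrations or buffers and across linkers.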
# [2] = target: GlcNAc(b1-4)GlcNAc(b1-4)GlcNAc(b1-4)GlcNAc(b1-4)GlcNAc(b1-4)GlcNAc
# Method in brief: as §1
# [3] = target: GlcNAc(b1-4)[GlcNAc(b1-6)]GalNAc
# Method in brief: as §1
# [4] = target: GlcNAc(b1-6)Gal(b1-4)GlcNAc
# Method in brief: as §1
# GlcNAc(b1-6)GalNAc = target: GlcNAc(b1-6)GalNAc
# Method in brief: as §1
# [5] = target: GlcNAc6S(b1-3)Gal(b1-4)GlcNAc
# Method in brief: as §1
# Kdn(a2-3)Gal(b1-3)GalNAc = target: Kdn(a2-3)Gal(b1-3)GalNAc
# Method in brief: as §1
# Kdn(a2-3)Gal(b1-3)GlcNAc = target: Kdn(a2-3)Gal(b1-3)GlcNAc
# Method in brief: as §1
# Kdn(a2-3)Gal(b1-4)Glc = target: Kdn(a2-3)Gal(b1-4)Glc
# Method in brief: as §1
# Kdn(a2-3)Gal(b1-4)GlcNAc = target: Kdn(a2-3)Gal(b1-4)GlcNAc
# Method in brief: as §1
# [6] = target: Kdn(a2-3)Gal(b1-4)[Fuc(a1-3)]GlcNAc
# Method in brief: as §1
# Kdn(a2-6)Gal(b1-4)GlcNAc = target: Kdn(a2-6)Gal(b1-4)GlcNAc
# Method in brief: as §1
# [7] = target: Man(a1-2)Man(a1-2)Man(a1-3)Man
# Method in brief: as §1
# [8] = target: Man(a1-2)Man(a1-2)Man(a1-6)[Man(a1-3)]Man
# Method in brief: as §1
# Man(a1-2)Man(a1-3)Man = target: Man(a1-2)Man(a1-3)Man
# Method in brief: as §1
# [9] = target: Man(a1-2)Man(a1-3)[Man(a1-2)Man(a1-6)]Man
# Method in brief: as §1
# [10] = target: Man(a1-2)Man(a1-3)[Man(a1-2)Man(a1-6)]Man(a1-6)[Man(a1-2)Man(a1-2)Man(a1-3)]Man
# Method in brief: as §1
# [11] = target: Man(a1-2)Man(a1-3)[Man(a1-2)Man(a1-6)]Man(a1-6)[Man(a1-2)Man(a1-2)Man(a1-3)]Man(b1-4)GlcNAc(b1-4)GlcNAc
# Method in brief: as §1
# [12] = target: Man(a1-2)Man(a1-3)[Man(a1-6)]Man(a1-6)[Man(a1-2)Man(a1-3)]Man(b1-4)GlcNAc(b1-4)GlcNAc
# Method in brief: as §1
# [13] = target: Man(a1-2)Man(a1-6)[Man(a1-3)]Man(a1-6)[Man(a1-2)Man(a1-2)Man(a1-3)]Man
# Method in brief: as §1
# [14] = target: Man(a1-2)Man(a1-6)[Man(a1-3)]Man(a1-6)[Man(a1-2)Man(a1-2)Man(a1-3)]Man(b1-4)GlcNAc(b1-4)GlcNAc
# Method in brief: as §1
# Man(a1-3)[Man(a1-6)]Man = target: Man(a1-3)[Man(a1-6)]Man
# Method in brief: as §1
# [15] = target: Man(a1-3)[Man(a1-6)]Man(a1-6)[Man(a1-2)Man(a1-3)]Man(b1-4)GlcNAc(b1-4)GlcNAc
# Method in brief: as §1
# [16] = target: Man(a1-3)[Man(a1-6)]Man(a1-6)[Man(a1-3)]Man
# Method in brief: as §1
# [17] = target: Man(a1-3)[Man(a1-6)]Man(a1-6)[Man(a1-3)]Man(b1-4)GlcNAc(b1-4)GlcNAc
# Method in brief: as §1
# [18] = target: Man(a1-3)[Man(a1-6)]Man(b1-4)GlcNAc(b1-4)GlcNAc
# Method in brief: as §1
# [19] = target: Man(a1-3)[Man(a1-6)]Man(b1-4)GlcNAc(b1-4)[Fuc(a1-6)]GlcNAc
# Method in brief: as §1
# Man(a1-6)Man = target: Man(a1-6)Man
# Method in brief: as §1
# Man(b1-4)GlcNAc = target: Man(b1-4)GlcNAc
# Method in brief: as §1
# MurNAc(b1-4)GlcNAc = target: MurNAc(b1-4)GlcNAc
# Method in brief: as §1
# Neu5Ac(a2-3)Gal = target: Neu5Ac(a2-3)Gal
# Method in brief: as §1
# [20] = target: Neu5Ac(a2-3)Gal(b1-3)GalNAc
# Method in brief: as §1
# [21] = target: Neu5Ac(a2-3)Gal(b1-3)GalNAc(b1-3)Gal(a1-4)Gal(b1-4)Glc
# Method in brief: as §1
# [22] = target: Neu5Ac(a2-3)Gal(b1-3)GalNAc(b1-4)Gal(b1-4)Glc
# Method in brief: as §1
# [23] = target: Neu5Ac(a2-3)Gal(b1-3)GalNAc(b1-4)[Neu5Ac(a2-3)]Gal(b1-4)Glc
# Method in brief: as §1
# [24] = target: Neu5Ac(a2-3)Gal(b1-3)GalNAc(b1-4)[Neu5Ac(a2-8)Neu5Ac(a2-3)]Gal(b1-4)Glc
# Method in brief: as §1
# [25] = target: Neu5Ac(a2-3)Gal(b1-3)GalNAc6S
# Method in brief: as §1
binder,measurement,setting,value
B1,glycan array binding signal (z-score),[1],0.345
same,glycan array binding signal (z-score),[2],-1.17
same,glycan array binding signal (z-score),[3],-0.368
same,glycan array binding signal (z-score),[4],1.38
same,glycan array binding signal (z-score),GlcNAc(b1-6)GalNAc,0.018
same,glycan array binding signal (z-score),[5],-0.014
same,glycan array binding signal (z-score),Kdn(a2-3)Gal(b1-3)GalNAc,0.981
same,glycan array binding signal (z-score),Kdn(a2-3)Gal(b1-3)GlcNAc,-0.696
same,glycan array binding signal (z-score),Kdn(a2-3)Gal(b1-4)Glc,0.718
same,glycan array binding signal (z-score),Kdn(a2-3)Gal(b1-4)GlcNAc,0.297
same,glycan array binding signal (z-score),[6],1.3
same,glycan array binding signal (z-score),Kdn(a2-6)Gal(b1-4)GlcNAc,-0.045
same,glycan array binding signal (z-score),[7],-0.329
same,glycan array binding signal (z-score),[8],0.054
same,glycan array binding signal (z-score),Man(a1-2)Man(a1-3)Man,-0.716
same,glycan array binding signal (z-score),[9],-0.708
same,glycan array binding signal (z-score),[10],-0.917
same,glycan array binding signal (z-score),[11],0.043
same,glycan array binding signal (z-score),[12],-0.534
same,glycan array binding signal (z-score),[13],0.121
same,glycan array binding signal (z-score),[14],-0.478
same,glycan array binding signal (z-score),Man(a1-3)[Man(a1-6)]Man,0.04
same,glycan array binding signal (z-score),[15],0.521
same,glycan array binding signal (z-score),[16],-0.502
same,glycan array binding signal (z-score),[17],-0.227
same,glycan array binding signal (z-score),[18],-0.254
same,glycan array binding signal (z-score),[19],-0.274
same,glycan array binding signal (z-score),Man(a1-6)Man,-1.07
same,glycan array binding signal (z-score),Man(b1-4)GlcNAc,-0.041
same,glycan array binding signal (z-score),MurNAc(b1-4)GlcNAc,-0.558
same,glycan array binding signal (z-score),Neu5Ac(a2-3)Gal,-0.577
same,glycan array binding signal (z-score),[20],-0.342
same,glycan array binding signal (z-score),[21],-0.696
same,glycan array binding signal (z-score),[22],-0.523
same,glycan array binding signal (z-score),[23],0.112
same,glycan array binding signal (z-score),[24],0.683
same,glycan array binding signal (z-score),[25],-0.064

# 2 records picked at random from the list so far, as already listed:
binder,measurement,setting,value
B1,glycan array binding signal (z-score),[24],0.683
same,glycan array binding signal (z-score),[15],0.521
